Measurements: patent publication US20090312423A1, “THERAPEUTIC TREATMENT FOR LUNG CONDITIONS” (Vanderbilt University, priority 2008, published 2009)

System: chronically hypoxic piglets
Assay: In vivo hemodynamics in newborn piglets exposed to 10 days of chronic hypoxia
Source text: A total of 17 hypoxic and 17 control piglets were studied. Control animals were studied on the day of arrival from the farm at 12 days of age. The hypoxic pigs (2 days old) were placed in a normobaric hypoxic chamber for 10 to 11 days. Normobaric hypoxia was provided using compressed air and nitrogen to create inspired oxygen of 8-11% (PO2 60-72 Torr) and CO2 was maintained at 3-6 Torr by absorption with soda lime. The animals were monitored with daily weights and physical exam twice daily. They were fed ad lib with sow milk replacer from a feeding device in the cage.
Six of the seventeen hypoxic piglets were supplemented with oral L-citrulline starting on the first day of the hypoxic exposure. L-citrulline supplementation was provided at a dose of 0.13-gm/kilogram body weight twice a day using a syringe to deliver the dose orally. If it appeared to study personnel that the piglet had not ingested the majority of a dose, it was repeated. L-citrulline was mixed using a preparation (Sigma Pharmaceuticals, St. Louis, Mo., United States of America, 98% purity) at a concentration of 0.13 grams per milliliter of distilled water and when completely dissolved passing this solution through a 0.20 Micron filter.
In vivo hemodynamics were measured in 6 of the control piglets and all of the hypoxic piglets. For these measurements, the animals were weighed and then preanesthetized with Ketamine (15 mg/kg) and Acepromazine (2 mg/kg) intramuscularly. A tracheostomy, venous and arterial catheters, and thermistor were then placed as previously described using intravenous pentobarbital for sedation. Fike, C. D. et al., J Appl Physiol (2000) 88:1797-1803. Pulmonary artery pressure, left ventricular end diastolic pressure, and cardiac output were measured. Cardiac output was measured by a thermodilution technique (model 9520 thermodilution cardiac output computer, Edwards Laboratory, Irvine, Calif., United States of America) using a thermistor in the aortic arch and the left ventricle catheter as an injection port. Cardiac output was measured at end expiration as the mean of three injections of 3 ml of normal saline (0° C.). Exhaled NO was measured as described below. During the in vivo measurements, animals were ventilated with room air using a piston-type ventilator at a tidal volume of 15-20 cc/kg, end-expiratory pressure of 2 mmHg, and a respiratory rate of 15-20 breaths per minute.
Pulmonary vascular resistance was calculated from the in vivo hemodynamic measurements: (Pulmonary arterial pressure−left ventricular end diastolic pressure)÷(Cardiac output/body weight).
Data are presented as means±SE. The one-way ANOVA with Fisher's protected least significant difference (PLSD) post hoc comparison test was used to compare data between control, untreated hypoxic and L-citrulline treated hypoxic animals. A p-value less than 0.05 was considered significant. Meier, U., Pharm Stat (2006) 5:253-263.

[1] = chronically hypoxic piglets, oral L-citrulline 0.13 g/kg twice a day, mean ± SEM, N = 6

For `NC(=O)NCCC[C@H](N)C(=O)O` [L-citrulline], the paO2 (L-citrulline treated hypoxic piglets) was 78±7 Torr, the “Aortic Pressure” value [1] was 97 ± 6 cm H2O and the “Arterial pH” value [1] was 7.36 ± 0.02. For the same compound, the “Cardiac Output” value [1] was 270 ± 41 mL/min/kg, the LVEDP [1] was 7.2 ± 0.4 cmH20 and the “Weight at 12 days of age” value [1] was 2.6 ± 0.09 kg.
